The list shows a part of the results. The source does not settle which construct or isoform was used.
target: T1, ELF2 (UniProt Q15723); assay: DAPPL (digital affinity profiling via proximity ligation, sequencing); conditions: 10 mM Tris-HCl pH 7.5, 50 mM NaCl, 1 mM DTT, 4% glycerol, room temperature, 30 min; GST-TFs on glutathione beads, 16-mer random dsDNA library, 0.1% …; high values mean tight binding; double strand, one strand shown; scale: fold enrichment (6-mer frequency, TF over GST control)
T1 sequence: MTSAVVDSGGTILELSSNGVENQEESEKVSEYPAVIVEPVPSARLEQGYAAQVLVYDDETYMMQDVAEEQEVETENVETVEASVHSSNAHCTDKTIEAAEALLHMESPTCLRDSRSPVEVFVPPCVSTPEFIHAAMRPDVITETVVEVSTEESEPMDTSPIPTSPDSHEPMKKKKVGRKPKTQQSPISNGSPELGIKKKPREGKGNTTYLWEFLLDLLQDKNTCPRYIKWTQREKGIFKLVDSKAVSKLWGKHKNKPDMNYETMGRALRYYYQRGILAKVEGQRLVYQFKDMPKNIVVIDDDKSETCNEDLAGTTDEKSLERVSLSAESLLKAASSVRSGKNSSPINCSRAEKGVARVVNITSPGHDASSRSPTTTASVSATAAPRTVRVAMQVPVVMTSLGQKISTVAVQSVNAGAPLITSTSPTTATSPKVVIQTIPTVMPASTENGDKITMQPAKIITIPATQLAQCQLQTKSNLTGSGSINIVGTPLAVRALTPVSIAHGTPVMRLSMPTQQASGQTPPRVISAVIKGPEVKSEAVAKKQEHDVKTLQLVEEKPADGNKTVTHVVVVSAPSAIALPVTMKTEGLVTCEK

Sequence	binding signal
GCACGA	1.01
AGCGAA	0.919
AGCTAG	0.987
CGTTCT	1.38
CCCAAA	1.12
GAGAAT	0.706
AACTCA	1.21
TGTTAC	1.41
CTCCCT	1.44
CCAATT	1.25
CAAGAT	1.04
ATCTAT	1.1
ATCAGA	0.905
AGCACT	1.4
GGATCT	1.01
CCACTC	1.2
TCTGAA	1.13
ATTGTT	1.53
GGAATG	0.858
TTCTGT	1.23

Sequence	binding signal
TATAGG	1.17
TCGAGC	0.932
TCTTAT	1.21
GCCTAA	1.12
TTCATT	1.21
TGTAAG	1.04
CTTGAA	1.04
AAGAAC	1.26
ATTTGC	1.23
AACCCC	1.15
GGATAA	0.816
GCTCAC	1.42
ATGCGA	1.19
CGAAAT	1.03
GAATAT	1.12
AGGGTT	0.923
GCTCCG	1.24
CCCGAT	1.2
TCGACG	0.989

Random excerpt: two entries already listed
Sequence	binding signal
CGAAAT	1.03
ATTTGC	1.23
